PubChem BioAssay AID1508600 (Functional Genomics Laboratory (NCATS/FGL), 2020)
The whole screen tested about 53,000 sequences, of which about 3,700 (7%) were called active.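 Rule for the calls: active = gene knockdowns whose robust z-score for IL-1 alpha signal is at least 2 or at most -2, so actives lie on both sides; inactive = the rest.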 The list shows a part of the results.

Test: Components of the Cytosolic LPS Sensing Pathway: Gene Identification via Genome-wide siRNA Screen;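 note: robust z of the log signal after scaling to non-targeting control siRNA wells of the plate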
Settings: RAW264.7 macrophages, IL-1a HTRF, actives lie on both sides, screened at 100 nM (by protocol), cells primed 5 h with Pam3CSK4 first
How it was run: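 IL-1a HTRF of supernatants after 24 hour LipidA transfection of Pam3CSK4-primed (5 hours) RAW264.7 cells, 48h post-siRNA transfection (100 nM). Scores: percent of plate negative-control median, then log-based robust z-score.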

| Sequence | z-score |
| --- | --- |
| GGAUAUAAGACACAAGCUGTT against Gbp4 | inactive: 0.607 |
| GGAAAAAAGCCGGGAAACCTT against Cd99 | inactive: -1.07 |
| CCACUCUUAAGAGGAUAUATT against Them6 | inactive: 1.33 |
| UCUAUGCAUGGCCCUUUAATT against Olfr726 | inactive: 0.666 |
| GGGCUUAUUGGAAGUCAGATT against Ttc13 | inactive: -0.248 |
| GGUCUUUCAGUUGGAUAUATT against Celsr2 | inactive: 0.627 |
| GGUUUCACUAAGACUUAACTT against Ddx27 | inactive: -0.869 |
| GGUCACAAACAGAUUAAUUTT against Ahcy | inactive: -0.404 |
| GGCUAUGUCUGUUUCCUUUTT against Defa-rs10 | inactive: 0.963 |
| GACACCUACUUCAUUGGCCTT against Olfr1245 | inactive: -1.23 |
| GGAGAUUCAUCGCUACCUUTT against Ccna1 | active: 2.46 |
| GGCAGAUGAGGGCUUAGCATT against Aph1a | inactive: -1.08 |
| GGAUGAAGUGGAAGAUUACTT against Naip2 | inactive: 0.1 |
| GGAACUUACAUCAGAAAUGTT against Zdhhc2 | inactive: -1.61 |
| GCCGGAUGGCACAUUCGUATT against Cda | inactive: -0.281 |
| AAAAAUGUCGGAUUCCCAATT against Adgrf3 | inactive: -0.121 |
| GGCAUAUUCCGUUUUUAAATT against Pafah1b1 | inactive: -1.09 |
| GGAGCAGGUGCUUUUGGAUTT against Cat | inactive: 0.546 |
| GGAUACUGUUCCUUUAUAUTT against Slc15a2 | inactive: 0.134 |
| GGAUUCCAUGGACAAAACUTT against Uhrf1bp1l | inactive: 0.63 |
| GGAGAAGUGUUAUCUAUGUTT against Uimc1 | inactive: -0.637 |
| GGAUGAUGUUCUUAAUGCUTT against Exph5 | inactive: 0.154 |
| CGGUUACUUGCUCUCCUCCTT against Tssk5 | inactive: -0.956 |

| Sequence | z-score |
| --- | --- |
| CCAUGAAAAACUUAGUGUGTT against Trim37 | inactive: 0.682 |
| GGAACCAGUGAUCUUCAAATT against Zim1 | inactive: -0.357 |
| GCCAUACCUCACGAGAGCUTT against Mcpt8 | inactive: -1.87 |
| GGUUUGUCAAUGAUACUAATT against Adam17 | active: 2.49 |
| GGCUAUUUAUAAGUCCAGUTT against Uso1 | inactive: -0.307 |
| CGAGAUAUAUAGUUGGAUCTT against Cpa5 | inactive: 0.0901 |
| CCUGGGAUAUACAAAAAGATT against Srrm3 | inactive: -0.874 |
| GGGCAUCCUGGAUCAUCAUTT against Nlrp6 | inactive: -1.64 |
| GGUACUGGAAAUCUGUAUGTT against Nlgn1 | inactive: -0.332 |
| CGAAAGAUGUCUACGUGCCTT against Mrpl27 | inactive: 1.71 |
| GGACGAUUUUCCUCAAUAUTT against Pcdhgc4 | inactive: -0.403 |
| CCAUCAAUGGGAUAACUAATT against Rnaseh1 | inactive: -0.219 |
| CGGCAGAUGCAUUCAGGAUTT against Ccdc125 | inactive: 0.0172 |
| GGGUUUCUUGAUUCUGACCTT against Ccl5 | active: -2.33 |
| GGAAGAUAUUGGUAAAAACTT against Uba1y | inactive: 0.584 |
| GGGCCUGCUCUCUUUUCUGTT against Mfsd14b | inactive: 1.18 |
| GGCCGAGGAGAAAUUCAUCTT against Mapk8ip3 | inactive: 0.344 |
| GCGAUAUGAAUAUCAUCUUTT against Fbxo22 | inactive: -0.0727 |
| GCAGGGCUUUAUAGGUUGUTT against Pigu | inactive: 0.266 |
| GGCUGAGGUUCGAGUGUAUTT against Rps6ka4 | active: 3.51 |
| GUCUGAGCGACUGUCUCCATT against Mef2b | active: -2.17 |
| GGCAAAAAUUUUUUCAUGCTT against Abcb4 | inactive: -0.47 |
| GGGAUCGAUCAAUCAUAACTT against Tfap2c | inactive: 0.72 |

| Sequence | z-score |
| --- | --- |
| GGCAUGAGGGCAAAUGAAATT against 4933434M16Rik | inactive: -0.707 |
| AGACUCGUACACGCAGGAATT against Ggn | inactive: 0.882 |
| CCCUCAGCAGCUCCAACAATT against Olfr739 | inactive: -0.125 |
| GGUUUUUGUCACUAUAAGCTT against Trim52 | inactive: 0.638 |
| GGCAGAGAAAUGGGCAAUGTT against Hcar1 | active: 2.12 |
| GGUAAAAUUGUCCAAGGAATT against Clec2i | inactive: -0.109 |
| GGGCUUUGAGAGCAUCUUATT against Nod2 | inactive: -0.731 |
| GGGCUCUUUUUGGCGAAUATT against Foxk1 | inactive: -0.402 |
| GCAUCAGCGUAAAAUGAUUTT against Sall3 | inactive: -0.469 |
| GGACGACCUCAUUCUUUUUTT against Cfd | inactive: -0.479 |
| GGCUAUGAGGCAAGUCAACTT against Zfp830 | inactive: -0.392 |
| CGGAGUGUGAGCCAUUUUGTT against Pgap4 | inactive: -0.915 |
| GGGUGACACCUUGUCCAACTT against Abcc6 | inactive: -1.13 |
| GGAUUUGGACUCAAAACUATT against Pkig | inactive: -0.26 |
| CGAUGACAGACCCUUUCUGTT against Slc2a8 | inactive: -0.698 |
| GGACCUGCAUUCUAAAUCATT against Cxcl3 | inactive: 1.39 |
| GGCAAAAGCAUUGUCUCUGTT against Armc9 | inactive: -0.661 |
| GCAAUGUACUACCAAGAAUTT against Gbe1 | inactive: -1.33 |
| GCCCAUCUGAUGAAUACAATT against Mrto4 | inactive: 1.45 |
| GCUGCAUUUGUGCUACUUUTT against Ska2 | inactive: -0.603 |
| GCUGAGUCUCAUCAAAGUCTT against Qtrt2 | inactive: -1.04 |
| CCACUACAGCAUUGUGACGTT against Enpp4 | inactive: -1.13 |

Random excerpt: 3 entries already listed, in no set order.

| Sequence | z-score |
| --- | --- |
| GCUGCAUUUGUGCUACUUUTT against Ska2 | inactive: -0.603 |
| GGUAAAAUUGUCCAAGGAATT against Clec2i | inactive: -0.109 |
| GGGCUCUUUUUGGCGAAUATT against Foxk1 | inactive: -0.402 |
